The campaign covered roughly 390,000 compounds. About 610 (0.16%) were called active. Inconclusive results, whose numbers are uncertain, are shown with a selection of clear calls. The call rests on the fitted dose curve; in most records, active means well fitted inhibition curve with a large enough effect; inconclusive means small, poorly fitted or top-dose-only effect, or effect the other way, or another doubt; inactive means no such curve, though single readings can be large or run the other way. Where the call is inconclusive, the potency comes from a doubtful curve fit.
assay: Nrf2 qHTS screen for inhibitors: counterscreen for cytotoxicity; details: A549 ARE-Fluc cells, CellTiter-Fluor viability, 18-24 h; series mostly up to 46 µM
In short: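 Cytotoxicity counterscreen: CellTiter-Fluor fluorescence was measured in A549 ARE_Fluc cells after 18-24 h of compound exposure in a concentration series. The subsequent BugLite luminescent read reports ARE-luciferase activity.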
Potency means the concentration at half of the fitted maximal effect.

Which Potency does the source give for `O=C(Nc1ncc([N+](=O)[O-])s1)c1ccco1` here?
Its Potency is inconclusive: 29.1 µM [falling, partial curve, poor fit].

For `O=C(CC1Nc2ccccc2NC1=O)Nc1ccccc1` (stereo not drawn), which Potency is on record?
The Potency was inconclusive: 29.1 µM [falling, single point].

Which Potency does the source give for `Cc1[nH]n(C)c(=O)c1N=Nc1ccc(S(C)(=O)=O)cc1` here?
Its Potency is inconclusive: 18.4 µM [falling, partial curve, poor fit].

Which Potency does the source give for `CCc1ccc(CNCCNC(=O)c2ccco2)cc1` here?
The Potency was inconclusive: 23.1 µM [falling, partial curve, poor fit].

Which Potency does the source give for `CCc1nnc2n1N=C(c1ccc(OC)cc1)CS2` here?
The Potency was inconclusive: 29.1 µM [falling, single point].

For `COc1cc(OC)c(NC2=CC(=O)C(=O)c3ccccc32)cc1Cl`, which Potency is on record?
The Potency was inconclusive: 29.1 µM [falling, single point].

For `Cc1ccc2c(CNCc3cccs3)c(C(=O)O)n(Cc3ccc(F)cc3)c2c1`, which Potency is on record?
The Potency was active: 11.6 µM.

For `Cn1ncc2c(NCc3cccc(Cl)c3)ncnc21`, which Potency is on record?
Its Potency is “inactive”.

For `O=C(Nc1nc(-c2cccc([N+](=O)[O-])c2)cs1)C(c1ccccc1)c1ccccc1`, which Potency is on record?
Its Potency is inconclusive: 0.13 µM [falling, full curve, poor fit].

Which Potency does the source give for `CCOc1cc(/C=C/c2cccc[n+]2C)ccc1O` here?
Its Potency is inconclusive: 20.6 µM [falling, single point].

For `Cc1cc(C)cc(NC2=NC3(CCCCC3)N=C(N)N2)c1`, which Potency is on record?
The Potency was inconclusive: 6.51 µM [falling, partial curve, poor fit].

With `O=C(O)c1ccc(-n2cccc2/C=N\NC(=O)c2cc3cc(Br)ccc3o2)cc1` as the molecule, how does the Potency read?
The Potency was “inactive”.

With `COc1cccc(/C=C2/SC(=S)N(CCCC(=O)Nc3ccc(O)cc3)C2=O)c1` as the molecule, how does the Potency read?
Its Potency is inconclusive: 29.1 µM [falling, single point].

For `COc1ccc(C(=O)OCC(=O)Nc2ccc3c(c2)OCO3)cc1S(=O)(=O)N1CCOCC1`, which Potency is on record?
Its Potency is “inactive”.

With `Cc1nc2sc(-c3ccccc3)cc2c(=O)n1N` as the molecule, how does the Potency read?
The Potency was “inactive”.

Which Potency does the source give for `COc1ccc(/C=C/C(O)=C2/C(=O)N(C)C3(C)CC2c2ccccc2O3)cc1` (stereo not drawn) here?
The Potency was inconclusive: 25.9 µM [falling, partial curve, poor fit].

For `Cc1c(Cl)cccc1NC(=O)N1CCN(Cc2cc(=O)n3nc(-c4ccccc4F)sc3n2)CC1`, which Potency is on record?
The Potency was “inactive”.

Which Potency does the source give for `CCOc1cc(-c2nc(-c3ccccc3)c(-c3cc([N+](=O)[O-])ccc3C)[nH]2)ccc1O` here?
Its Potency is inconclusive: 23.1 µM [falling, single point].

For `Cc1cccc(CN2CCc3c(OCC(=O)N4CCCc5ccccc54)cccc3C2=O)c1`, which Potency is on record?
The Potency was inconclusive: 29.1 µM [falling, single point].

For `O=C(Nc1cccc(Br)c1)c1ccc(Cl)c(S(=O)(=O)N2CCOCC2)c1`, which Potency is on record?
The Potency was inconclusive: 14.6 µM [falling, partial curve].

Which Potency does the source give for `CCC(C)c1ccc(NC(=O)c2c([N+](=O)[O-])cnn2CC)cc1` (stereo not drawn) here?
Its Potency is “inactive”.

For `CC(C)N(C(=O)[C@H]1C[C@H](CC(=O)NCC23CC4CC(CC(C4)C2)C3)C(=O)N2CCc3c([nH]c4cc(CCC(=O)N(C)C)ccc34)[C@]12C)C(C)C`, which Potency is on record?
The Potency was inconclusive: 20.6 µM [falling, single point].

With `Cc1cc(C)c(NC(=O)c2ncoc2-c2ccco2)c(C)c1` as the molecule, how does the Potency read?
Its Potency is “inactive”.

Which Potency does the source give for `COc1cccc(Cn2cc(C(=O)NCCN(C)C)nn2)c1` here?
The Potency was inconclusive: 32.6 µM [activator, partial curve, poor fit].

For `O=C(N/N=C/c1sc(N2CCCCC2)nc1-c1cccs1)c1cccnc1`, which Potency is on record?
The Potency was inconclusive: 29.1 µM [falling, single point].

With `Cc1noc(C)c1-c1ccc2ncnc(NCc3cccc(C(F)(F)F)c3)c2c1` as the molecule, how does the Potency read?
The Potency was “inactive”.

Which Potency does the source give for `CCc1ccc(-c2cc(C(=O)N3N=C(C(F)F)CC3(O)C(F)F)c3ccccc3n2)cc1` (stereo not drawn) here?
The Potency was active: 23.1 µM.

Which Potency does the source give for `CCCCn1c(N)c(C(=S)NC(=O)CC(C)(C)C)c(=O)n(C)c1=O` here?
Its Potency is inconclusive: 29.1 µM [falling, single point].

For `O=C(O)CCn1c(SCc2cccc3ccccc23)nc2ccccc21`, which Potency is on record?
Its Potency is “inactive”.

With `Cc1ccc(-c2noc(CN(C(=O)COc3cc(C)cc(C)c3C)C(C)C)n2)cc1` as the molecule, how does the Potency read?
Its Potency is “inactive”.

Which Potency does the source give for `COC(=O)c1ccc(OC)c(CN2C(=O)N(c3ccc(C(C)=O)cc3)S(=O)(=O)c3ccccc32)c1` here?
The Potency was inconclusive: 5.8 µM [falling, partial curve, poor fit].

With `Cc1ccc(CNCc2c(C(=O)O)n(Cc3ccc(C)cc3)c3cc(C)ccc23)cc1` as the molecule, how does the Potency read?
The Potency was inconclusive: 18.4 µM [falling, single point].

For `CCOC(=O)c1c(C)[nH]c(CCC(=O)Nc2ccc(Cl)cc2C)c1C`, which Potency is on record?
Its Potency is “inactive”.

For `Cc1ccc(NC(=O)c2ccccc2NS(=O)(=O)c2ccc(Cl)s2)cc1`, which Potency is on record?
Its Potency is inconclusive: 20.6 µM [falling, single point].

Which Potency does the source give for `NC(=S)Nc1cccc2[nH]ccc12` here?
The Potency was inconclusive: 16.4 µM [activator, partial curve, poor fit].

For `O=S(=O)(NCC(Nc1ccc(Cl)cc1)c1ccccc1)c1ccccc1` (stereo not drawn), which Potency is on record?
Its Potency is inconclusive: 29.1 µM [falling, single point].

For `COc1cc(NC(=O)Nc2ccccc2)c(OC)cc1NC(=O)CN1CCCCC1`, which Potency is on record?
Its Potency is inconclusive: 16.4 µM [falling, partial curve, poor fit].

With `CCOc1ccc(-c2cc(NC(=O)c3c(F)cccc3F)c(C(=O)O)s2)cc1` as the molecule, how does the Potency read?
The Potency was inconclusive: 18.4 µM [falling, partial curve, poor fit].

With `O=C(c1ccccc1)c1cnc(Nc2ccccc2Cl)s1` as the molecule, how does the Potency read?
The Potency was inconclusive: 14.6 µM [falling, partial curve, poor fit].

For `Cc1noc(C)c1CSCC(=O)Nc1nc(-c2ccc(F)c(F)c2)cs1`, which Potency is on record?
The Potency was inconclusive: 32.6 µM [falling, partial curve, poor fit].

Which Potency does the source give for `CC[n+]1c(/C=C/c2ccc(OC(C)=O)c(OC)c2)ccc2ccccc21` here?
The Potency was active: 20.6 µM.

Which Potency does the source give for `CC1(C)CC(=O)C2=C(C1)c1c(ccc3ccccc13)NC2c1ccc(Br)o1` (stereo not drawn) here?
Its Potency is inconclusive: 25.9 µM [falling, single point].

Which Potency does the source give for `CCC(=O)Oc1ccc2ccccc2c1CNC(=O)c1ccccc1` here?
Its Potency is inconclusive: 11.6 µM [activator, partial curve, poor fit].

Which Potency does the source give for `CCN1CCc2c(C#N)c(N3CCOCC3)nc(NCCO)c2C1` here?
Its Potency is “inactive”.

For `CCc1c(C)sc2c1CCN(C(=O)Nc1ccc(F)c(Cl)c1)C2c1ccc(F)cc1` (stereo not drawn), which Potency is on record?
Its Potency is inconclusive: 32.6 µM [falling, single point].

For `O=C(O)c1ccc(N/N=C/C2=Cc3ccccc3OC2)cc1`, which Potency is on record?
The Potency was inconclusive: 9.2 µM [falling, partial curve, poor fit].

With `COc1ccc(Cn2c(=O)n(Cc3ccco3)c(=N)c3c4c(sc32)COC(C)(C)C4)cc1` as the molecule, how does the Potency read?
The Potency was inconclusive: 20.6 µM [falling, partial curve, poor fit].

With `N#Cc1cccc(NC(=O)c2cc3c(s2)-c2ccc(Cl)cc2SC3)c1` as the molecule, how does the Potency read?
The Potency was inconclusive: 4.61 µM [falling, full curve].

For `O=C(OCn1ncc(Br)c(Br)c1=O)c1ccccc1Cl`, which Potency is on record?
The Potency was inconclusive: 32.6 µM [falling, single point].

For `CC(C(=O)N(C)C1CCS(=O)(=O)C1)N1C(=O)/C(=C/c2cccs2)SC1=S` (stereo not drawn), which Potency is on record?
Its Potency is inconclusive: 29.1 µM [falling, single point].

Which Potency does the source give for `CC(=O)O[C@H]1C(=O)[C@@]2(C)[C@H]([C@H](OC(=O)c3ccccc3)[C@]3(O)C[C@H](OC(=O)[C@H](O)C(NC(=O)c4ccccc4)c4ccccc4)C(C)=C1C3(C)C)[C@]1(OC(C)=O)CO[C@@H]1C[C@@H]2O` (stereo partly drawn) here?
The Potency was inconclusive: 4.11 µM [falling, partial curve].

With `Cc1nn(-c2cccc(Cl)c2)c2nc(C(F)(F)F)[nH]c(=O)c12` as the molecule, how does the Potency read?
The Potency was “inactive”.

For `Cc1ccccc1CSCC(Nc1ccc(C(=O)O)cc1[N+](=O)[O-])C(=O)O` (stereo not drawn), which Potency is on record?
Its Potency is inconclusive: 2.91 µM [falling, partial curve, poor fit].

With `O=C(CN1CCCN(S(=O)(=O)c2ccc(Br)s2)CC1)Nc1ccc(Cl)cc1` as the molecule, how does the Potency read?
Its Potency is inconclusive: 23.1 µM [falling, single point].

Which Potency does the source give for `O=C1C2=C(NC(=S)NC2c2ccc(Cl)cc2)NC(c2ccc(Cl)cc2)N1c1ccc(Cl)cc1` (stereo not drawn) here?
The Potency was inconclusive: 29.1 µM [falling, single point].

Which Potency does the source give for `O=S(=O)(c1ccc(Cl)cc1)N1CCN(S(=O)(=O)c2ccc3c(c2)OCCO3)CC1` here?
Its Potency is “inactive”.

With `CN(C)S(=O)(=O)c1ccc(C(=O)Nc2nc(-c3ccccc3)c(C(=O)c3ccccc3)s2)cc1` as the molecule, how does the Potency read?
The Potency was inconclusive: 16.4 µM [falling, partial curve, poor fit].

Which Potency does the source give for `Cc1c(Cl)cccc1NC(=O)CCN1C(=O)c2ccccc2Sc2ncccc21` here?
The Potency was “inactive”.

Which Potency does the source give for `O=[N+]([O-])c1ccccc1NCc1ccc(O)c2ncccc12` here?
Its Potency is inconclusive: 5.8 µM [falling, partial curve, poor fit].

With `CC(Sc1nc(NCc2ccccc2)nc(N(C)C)n1)C(=O)Nc1ccccc1` (stereo not drawn) as the molecule, how does the Potency read?
The Potency was inconclusive: 20.6 µM [falling, single point].

With `Cc1ccccc1Cn1cccc1/C=C1/C(=N)N2C=CSC2=NC1=O` as the molecule, how does the Potency read?
Its Potency is inconclusive: 23.1 µM [falling, partial curve, poor fit].

Which Potency does the source give for `Cc1ccc(S(=O)(=O)c2c(C)nn(C(C)(C)C)c2OC(=O)c2cccs2)cc1` here?
The Potency was inconclusive: 23.1 µM [falling, partial curve, poor fit].

With `O=C(C1CCN(CCCc2ccccc2)CC1)N(CCc1ccccc1)Cc1ccccc1` as the molecule, how does the Potency read?
Its Potency is inconclusive: 14.6 µM [falling, partial curve].

Reference: PubChem BioAssay AID504648 (National Center for Advancing Translational Sciences (NCATS), 2011)
